# Assay results

The results are deposited in PubChem (AID504749; NCATS, 2011).

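A panel of P. falciparum strains inside erythrocytes is exposed to compounds for three days, then a DNA-binding dye reports the amount of parasite DNA.
Each compound was titrated across a series from about 0.000037 to 29 µM.
The number is the fitted AC50, the concentration giving a half-maximal change in signal; a lower value means higher potency, whether the curve shows a decrease or an increase.
Calls follow the curve class and fit quality: every row here is inconclusive, covering signal-raising curves and weak, poorly fitted, partial or highest-dose-only inhibition curves.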

Values are in µM.
All entries here are filed as inconclusive.
Only part of the assay is shown, chiefly results filed as inconclusive.
A potency from a partial, single-point or poor curve is only a rough figure.
The first word of each remark tells which way the curve ran; it can be opposite to the aim of the assay.

Compound	setting	potency (µM)	curve
O=C(O)CCc1nc2ccccc2[nH]1	W2	0.0005	activator
O=C(O)CCc1nc2ccccc2[nH]1	CP325	0.019	activator
O=C(O)CCc1nc2ccccc2[nH]1	CP291	3.381	activator
O=C(O)CCc1nc2ccccc2[nH]1	CP305	0.3013	activator
O=C(O)CCc1nc2ccccc2[nH]1	P93_24	0.02	inhibitor, full curve, poor fit
CCNC(=O)/C=C/c1cccc(Br)c1	parasite line A	11.22	inhibitor, partial curve, poor fit
CCNC(=O)/C=C/c1cccc(Br)c1	TAB165	17.78	inhibitor, single point
CCNC(=O)/C=C/c1cccc(Br)c1	CP252	17.78	inhibitor, single point
CCNC(=O)/C=C/c1cccc(Br)c1	CP250	3.162	inhibitor, partial curve
CN(C(=O)CCCOc1ccc2[nH]c(=O)ccc2c1)C1CCCCC1	DIV17	8.492	inhibitor, single point
CN(C(=O)CCCOc1ccc2[nH]c(=O)ccc2c1)C1CCCCC1	JCK	0.0158	inhibitor, full curve, poor fit
CN(C(=O)CCCOc1ccc2[nH]c(=O)ccc2c1)C1CCCCC1	CP194	7.569	inhibitor, partial curve
CN(C(=O)CCCOc1ccc2[nH]c(=O)ccc2c1)C1CCCCC1	CP297	5.358	inhibitor, partial curve, poor fit
CN(C(=O)CCCOc1ccc2[nH]c(=O)ccc2c1)C1CCCCC1	TAB165	12.59	inhibitor, single point
CN(C(=O)CCCOc1ccc2[nH]c(=O)ccc2c1)C1CCCCC1	CP291	7.569	inhibitor, partial curve, poor fit
CN(C(=O)CCCOc1ccc2[nH]c(=O)ccc2c1)C1CCCCC1	CP266	21.33	inhibitor, partial curve, poor fit
CN(C(=O)CCCOc1ccc2[nH]c(=O)ccc2c1)C1CCCCC1	DIV30	15.1	inhibitor, single point
CN(C(=O)CCCOc1ccc2[nH]c(=O)ccc2c1)C1CCCCC1	P94_40	11.22	inhibitor, single point
CN(C(=O)CCCOc1ccc2[nH]c(=O)ccc2c1)C1CCCCC1	Dd2	7.943	inhibitor, partial curve
CN(C(=O)CCCOc1ccc2[nH]c(=O)ccc2c1)C1CCCCC1	CP247	3.981	inhibitor, partial curve
CN(C(=O)CCCOc1ccc2[nH]c(=O)ccc2c1)C1CCCCC1	PC49	0.0001	inhibitor
CN(C(=O)CCCOc1ccc2[nH]c(=O)ccc2c1)C1CCCCC1	ICS	11.22	inhibitor, single point
CN(C(=O)CCCOc1ccc2[nH]c(=O)ccc2c1)C1CCCCC1	C2A	10	inhibitor, partial curve
CN(C(=O)CCCOc1ccc2[nH]c(=O)ccc2c1)C1CCCCC1	PC26	12	inhibitor, partial curve
CN(C(=O)CCCOc1ccc2[nH]c(=O)ccc2c1)C1CCCCC1	DIV14	4.776	inhibitor, partial curve, poor fit
CN(C(=O)CCCOc1ccc2[nH]c(=O)ccc2c1)C1CCCCC1	PAD	10	inhibitor, single point
CN(C(=O)CCCOc1ccc2[nH]c(=O)ccc2c1)C1CCCCC1	P93_24	10	inhibitor, single point
CCOC(=O)O[C@]1(C(=O)OCCl)CC[C@@H]2[C@H]3CCC4=CC(=O)C=C[C@]4(C)[C@@H]3[C@@H](O)C[C@@]21C	CP305	0.0135	activator, full curve, poor fit
CCOC(=O)O[C@]1(C(=O)OCCl)CC[C@@H]2[C@H]3CCC4=CC(=O)C=C[C@]4(C)[C@@H]3[C@@H](O)C[C@@]21C	CP215	16.94	inhibitor, single point
CCOC(=O)O[C@]1(C(=O)OCCl)CC[C@@H]2[C@H]3CCC4=CC(=O)C=C[C@]4(C)[C@@H]3[C@@H](O)C[C@@]21C	W2	2.393	inhibitor, single point
CCOC(=O)O[C@]1(C(=O)OCCl)CC[C@@H]2[C@H]3CCC4=CC(=O)C=C[C@]4(C)[C@@H]3[C@@H](O)C[C@@]21C	DIV30	15.1	inhibitor, partial curve, poor fit
CCOC(=O)O[C@]1(C(=O)OCCl)CC[C@@H]2[C@H]3CCC4=CC(=O)C=C[C@]4(C)[C@@H]3[C@@H](O)C[C@@]21C	7G8	7.08	inhibitor, single point
CCOC(=O)O[C@]1(C(=O)OCCl)CC[C@@H]2[C@H]3CCC4=CC(=O)C=C[C@]4(C)[C@@H]3[C@@H](O)C[C@@]21C	CP266	0.019	inhibitor, full curve, poor fit
CC1(C)[C@@H](C=C(Cl)Cl)[C@@H]1C(=O)OCc1c(F)c(F)cc(F)c1F	CP297	0.0038	inhibitor, full curve, poor fit
CC1(C)[C@@H](C=C(Cl)Cl)[C@@H]1C(=O)OCc1c(F)c(F)cc(F)c1F	TAB109	2.818	inhibitor, single point
CC1(C)[C@@H](C=C(Cl)Cl)[C@@H]1C(=O)OCc1c(F)c(F)cc(F)c1F	W2	19.01	inhibitor, partial curve, poor fit
CC(=O)N(CC(O)CO)c1c(I)c(C(=O)NCC(O)CO)c(I)c(C(=O)NCC(O)CO)c1I (configuration not stated)	W2	10.69	inhibitor, partial curve, poor fit

Once more, the final 4:

Compound	setting	potency (µM)	curve
CC1(C)[C@@H](C=C(Cl)Cl)[C@@H]1C(=O)OCc1c(F)c(F)cc(F)c1F	CP297	0.0038	inhibitor, full curve, poor fit
CC1(C)[C@@H](C=C(Cl)Cl)[C@@H]1C(=O)OCc1c(F)c(F)cc(F)c1F	TAB109	2.818	inhibitor, single point
CC1(C)[C@@H](C=C(Cl)Cl)[C@@H]1C(=O)OCc1c(F)c(F)cc(F)c1F	W2	19.01	inhibitor, partial curve, poor fit
CC(=O)N(CC(O)CO)c1c(I)c(C(=O)NCC(O)CO)c(I)c(C(=O)NCC(O)CO)c1I (configuration not stated)	W2	10.69	inhibitor, partial curve, poor fit